In paper PMC12120788:
Results are given in words; binding and its absence hold for the method and conditions named. In cells and extracts the contact can be indirect. A yes stands for co-enrichment or nearness to the bait. Other partners may have been found. Sequences can lack the tags named with a protein.

By UniProt entry, the sequences of proteins in these tests, tags left out.
UniProt Q9UNF0: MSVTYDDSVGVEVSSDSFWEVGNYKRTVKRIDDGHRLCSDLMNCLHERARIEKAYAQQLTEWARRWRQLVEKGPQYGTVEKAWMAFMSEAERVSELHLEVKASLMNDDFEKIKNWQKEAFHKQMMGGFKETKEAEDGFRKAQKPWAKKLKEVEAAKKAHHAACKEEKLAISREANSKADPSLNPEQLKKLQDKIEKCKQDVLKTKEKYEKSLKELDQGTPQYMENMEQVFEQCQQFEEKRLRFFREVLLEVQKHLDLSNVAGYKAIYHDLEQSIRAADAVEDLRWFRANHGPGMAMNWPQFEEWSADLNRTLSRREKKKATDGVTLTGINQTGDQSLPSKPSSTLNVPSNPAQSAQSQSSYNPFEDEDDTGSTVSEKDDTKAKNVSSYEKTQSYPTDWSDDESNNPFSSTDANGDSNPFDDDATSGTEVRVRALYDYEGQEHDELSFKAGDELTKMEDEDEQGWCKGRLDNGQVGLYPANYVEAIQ
UniProt O00443: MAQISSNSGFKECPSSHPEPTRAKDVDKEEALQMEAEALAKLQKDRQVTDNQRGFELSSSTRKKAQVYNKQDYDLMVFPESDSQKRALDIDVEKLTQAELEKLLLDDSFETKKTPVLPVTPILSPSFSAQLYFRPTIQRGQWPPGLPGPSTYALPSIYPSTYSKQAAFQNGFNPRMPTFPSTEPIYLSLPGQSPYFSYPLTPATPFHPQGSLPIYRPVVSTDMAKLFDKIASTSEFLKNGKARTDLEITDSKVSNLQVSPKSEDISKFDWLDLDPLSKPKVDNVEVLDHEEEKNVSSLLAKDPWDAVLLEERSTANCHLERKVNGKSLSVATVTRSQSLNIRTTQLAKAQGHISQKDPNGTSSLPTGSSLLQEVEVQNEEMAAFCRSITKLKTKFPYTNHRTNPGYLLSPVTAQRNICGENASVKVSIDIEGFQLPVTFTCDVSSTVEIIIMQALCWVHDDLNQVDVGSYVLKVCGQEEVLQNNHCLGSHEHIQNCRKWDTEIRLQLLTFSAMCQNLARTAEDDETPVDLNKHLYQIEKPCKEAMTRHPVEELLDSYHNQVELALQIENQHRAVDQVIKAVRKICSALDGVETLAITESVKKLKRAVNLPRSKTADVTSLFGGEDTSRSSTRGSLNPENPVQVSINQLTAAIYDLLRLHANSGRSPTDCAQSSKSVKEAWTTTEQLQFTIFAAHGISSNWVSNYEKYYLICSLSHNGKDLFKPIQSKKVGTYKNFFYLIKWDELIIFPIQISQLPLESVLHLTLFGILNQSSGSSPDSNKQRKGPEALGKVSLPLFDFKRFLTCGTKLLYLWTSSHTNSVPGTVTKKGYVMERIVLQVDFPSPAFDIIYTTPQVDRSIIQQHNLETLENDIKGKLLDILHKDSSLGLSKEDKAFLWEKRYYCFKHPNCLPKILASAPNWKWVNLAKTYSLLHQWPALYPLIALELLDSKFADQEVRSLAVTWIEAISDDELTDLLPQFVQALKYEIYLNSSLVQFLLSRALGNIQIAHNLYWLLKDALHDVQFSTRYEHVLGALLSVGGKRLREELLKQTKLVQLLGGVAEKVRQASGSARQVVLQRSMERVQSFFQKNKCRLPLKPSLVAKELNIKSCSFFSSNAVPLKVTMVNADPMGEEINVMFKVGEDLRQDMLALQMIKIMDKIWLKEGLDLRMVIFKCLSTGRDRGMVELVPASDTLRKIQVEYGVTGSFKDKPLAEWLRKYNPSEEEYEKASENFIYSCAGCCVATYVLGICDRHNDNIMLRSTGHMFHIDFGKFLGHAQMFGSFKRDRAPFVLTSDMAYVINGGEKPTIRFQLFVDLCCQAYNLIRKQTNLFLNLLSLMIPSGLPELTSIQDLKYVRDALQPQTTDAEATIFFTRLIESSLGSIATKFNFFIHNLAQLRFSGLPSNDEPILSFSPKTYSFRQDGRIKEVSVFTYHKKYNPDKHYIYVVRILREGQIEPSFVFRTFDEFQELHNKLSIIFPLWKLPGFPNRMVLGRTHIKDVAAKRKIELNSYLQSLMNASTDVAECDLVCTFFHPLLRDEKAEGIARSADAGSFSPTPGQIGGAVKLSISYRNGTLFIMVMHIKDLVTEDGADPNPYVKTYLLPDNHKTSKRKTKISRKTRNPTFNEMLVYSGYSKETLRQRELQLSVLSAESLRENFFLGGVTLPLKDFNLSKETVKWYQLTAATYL

T1: PPY-Flag (pancreatic polypeptide, predominant splicing variant, Flag-tagged) (human) (UniProt P01298)
T1 sequence: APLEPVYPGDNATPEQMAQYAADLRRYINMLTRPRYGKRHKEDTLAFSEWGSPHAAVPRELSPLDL

B1: RRAS, endogenous in human CAFs (protein, UniProt P10301 1-218)
chain: MSSGAASGTGRGRPRGGGPGPGDPPPSETHKLVVVGGGGVGKSALTIQFIQSYFVSDYDPTIEDSYTKICSVDGIPARLDILDTAGQEEFGAMREQYMRAGHGFLLVFAINDRQSFNEVGKLFTQILRVKDRDDFPVVLVGNKADLESQRQVPRSEASAFGASHHVAYFEASAKLRLNVDEAFEQLVRAVRKYQEQELPPSPPSAPRKKGGGCPCVLL
B2: SPART, endogenous in human CAFs (protein, UniProt Q8N0X7 1-666)
chain: MEQEPQNGEPAEIKIIREAYKKAFLFVNKGLNTDELGQKEEAKNYYKQGIGHLLRGISISSKESEHTGPGWESARQMQQKMKETLQNVRTRLEILEKGLATSLQNDLQEVPKLYPEFPPKDMCEKLPEPQSFSSAPQHAEVNGNTSTPSAGAVAAPASLSLPSQSCPAEAPPAYTPQAAEGHYTVSYGTDSGEFSSVGEEFYRNHSQPPPLETLGLDADELILIPNGVQIFFVNPAGEVSAPSYPGYLRIVRFLDNSLDTVLNRPPGFLQVCDWLYPLVPDRSPVLKCTAGAYMFPDTMLQAAGCFVGVVLSSELPEDDRELFEDLLRQMSDLRLQANWNRAEEENEFQIPGRTRPSSDQLKEASGTDVKQLDQGNKDVRHKGKRGKRAKDTSSEEVNLSHIVPCEPVPEEKPKELPEWSEKVAHNILSGASWVSWGLVKGAEITGKAIQKGASKLRERIQPEEKPVEVSPAVTKGLYIAKQATGGAAKVSQFLVDGVCTVANCVGKELAPHVKKHGSKLVPESLKKDKDGKSPLDGAMVVAASSVQGFSTVWQGLECAAKCIVNNVSAETVQTVRYKYGYNAGEATHHAVDSAVNVGVTAYNINNIGIKAMVKKTATQTGHTLLEDYQIVDNSQRENQEGAANVNVRGEKDEQTKEVKEAKKKDK

molecular target: T1, PPY-Flag (pancreatic polypeptide, predominant splicing variant, Flag-tagged) (human); test: affinity purification with mass spectrometry; human CAFs treated with enriched PPY-Flag supernatant for 24 h, cells collected, immunoprecipitation with anti-Flag antibody or IgG control; Q-Exactive HF X; proteins also found in the IgG group excluded

binding, binds:
PACSIN2, endogenous in human CAFs (from UniProt Q9UNF0 1-486)
PIK3C2A, endogenous in human CAFs (from UniProt O00443 1-1686)
epidermal growth factor receptor (EGFR), endogenous in human CAFs (from UniProt P00533 25-1210)
B1
B2
